Experimental data: patent US20190300526A1, “PRODRUGS OF FUSED-BICYCLIC C5aR ANTAGONISTS” (CHEMOCENTRYX, INC., priority 2018, published 2019)
Some results were stated once for a whole list of compounds, not compound by compound.

Each compound was assayed against T1, C5aR (Homo sapiens, UniProt P21730) (assay: chemotaxis assay using U937 cells). Details: C5aR antagonists.
T1 construct: U937 cells are a monocytic cell line which express C5aR; host or cells: U937 cells (treated overnight with 0.5 mM cyclic AMP)
T1 sequence (P21730 1-350): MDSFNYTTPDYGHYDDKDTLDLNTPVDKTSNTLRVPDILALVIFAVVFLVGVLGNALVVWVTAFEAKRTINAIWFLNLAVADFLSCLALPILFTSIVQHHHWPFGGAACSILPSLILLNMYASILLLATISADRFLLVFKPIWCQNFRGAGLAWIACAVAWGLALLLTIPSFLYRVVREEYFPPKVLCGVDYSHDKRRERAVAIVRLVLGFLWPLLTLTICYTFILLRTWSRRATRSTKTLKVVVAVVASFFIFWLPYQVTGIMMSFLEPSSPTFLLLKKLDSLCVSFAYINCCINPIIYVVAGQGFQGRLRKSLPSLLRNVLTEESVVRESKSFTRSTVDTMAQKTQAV
Type: cell-based

IC50, ≤ 5 nM:
CCc1cccc(CC)c1-n1nc2c(c1-c1cc(Cl)c(OC)c3[nH]ccc13)CN(c1ncc(C(F)(F)F)cn1)CC2 [Intermediate 1, 3-(6-chloro-7-methoxy-1H-indol-4-yl)-2-(2,6-diethylphenyl)-5-(5-(trifluoromethyl)pyrimidin-2-yl)-4,5,6,7-tetrahydro-2H-pyrazolo[4,3-c]pyridine]
CCc1cccc(CC)c1-n1nc2c(c1-c1c(F)cc(CO)c3[nH]ccc13)CN(c1ncc(C(F)(F)F)cn1)CC2 [Intermediate 2, [4-[2-(2,6-diethylphenyl)-5-[5-(trifluoromethyl)pyrimidin-2-yl]-6,7-dihydro-4H-pyrazolo[4,3-c]pyridin-3-yl]-5-fluoro-1H-indol-7-yl]methanol]
CCc1cccc(CC)c1-n1nc2c(c1-c1cc(F)c(NC(N)=O)cc1F)CN(Cc1ccc(C(F)(F)F)cc1C(F)(F)F)C2(C)C [Intermediate 3, 1-(4-(5-(2,4-bis(trifluoromethyl)benzyl)-2-(2,6-diethylphenyl)-6,6-dimethyl-2,4,5,6-tetrahydropyrrolo[3,4-c]pyrazol-3-yl)-2,5-difluorophenyl)urea]
CCc1cccc(CC)c1-n1nc2c(c1-c1ccc(F)c3[nH]ccc13)CN(Cc1ccc(C(F)(F)F)cc1C(F)(F)F)C2(C)C [Intermediate 4, 4-(5-(2,4-bis(trifluoromethyl)benzyl)-2-(2,6-diethylphenyl)-6,6-dimethyl-2,4,5,6-tetrahydropyrrolo[3,4-c]pyrazol-3-yl)-7-fluoro-1H-indole]
